The source of these data is paper doi:10.1101/614636.

The chains behind the UniProt entries cited, without tags or fusion partners. Where a name states a change or a piece, a line headed by the entry shows the natural chain unless it says otherwise.
UniProt Q17TI5: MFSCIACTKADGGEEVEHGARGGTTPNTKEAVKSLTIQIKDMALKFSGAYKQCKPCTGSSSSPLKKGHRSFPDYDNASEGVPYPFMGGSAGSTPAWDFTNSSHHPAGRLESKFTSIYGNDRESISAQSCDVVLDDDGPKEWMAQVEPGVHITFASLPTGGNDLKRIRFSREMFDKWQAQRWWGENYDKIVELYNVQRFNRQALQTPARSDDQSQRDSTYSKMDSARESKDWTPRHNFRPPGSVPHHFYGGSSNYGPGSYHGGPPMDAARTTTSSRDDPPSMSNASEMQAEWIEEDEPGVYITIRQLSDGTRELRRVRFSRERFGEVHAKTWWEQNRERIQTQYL

These are yes or no findings as the source states them, for the method shown. Binding calls can cover weak binding; strength is not graded here.

The target in this test is T1, BREAKING OF … IN THE STOMATAL LINEAGE (BASL), full length, yeast two-hybrid bait (Arabidopsis thaliana) (UniProt Q5BPF3).
T1 sequence: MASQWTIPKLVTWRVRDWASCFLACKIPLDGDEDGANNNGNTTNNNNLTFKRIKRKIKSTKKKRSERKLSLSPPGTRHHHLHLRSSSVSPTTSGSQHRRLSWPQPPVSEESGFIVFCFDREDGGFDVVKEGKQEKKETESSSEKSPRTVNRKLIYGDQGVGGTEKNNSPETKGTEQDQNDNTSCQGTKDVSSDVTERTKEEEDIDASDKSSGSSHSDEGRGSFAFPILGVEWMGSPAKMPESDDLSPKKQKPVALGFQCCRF
Nature of the test: two-hybrid.

For “BRX C domain, pairwise yeast two-hybrid construct (from UniProt Q17TI5) (domain or fragment)”, the binding entry is given as “binds”.
